According to the supplement of paper PMC10060354, “Discovery of a small molecule ligand of FRS2 that inhibits invasion and tumor growth” (Cellular Oncology, 2022):
Many values rest on one well or one pass, so single values are uncertain.

Chains of the proteins cited; added tags and fusions are not shown. Lines headed by an entry give the natural chain unless they say otherwise; changes in a name come on top.
UniProt P55786: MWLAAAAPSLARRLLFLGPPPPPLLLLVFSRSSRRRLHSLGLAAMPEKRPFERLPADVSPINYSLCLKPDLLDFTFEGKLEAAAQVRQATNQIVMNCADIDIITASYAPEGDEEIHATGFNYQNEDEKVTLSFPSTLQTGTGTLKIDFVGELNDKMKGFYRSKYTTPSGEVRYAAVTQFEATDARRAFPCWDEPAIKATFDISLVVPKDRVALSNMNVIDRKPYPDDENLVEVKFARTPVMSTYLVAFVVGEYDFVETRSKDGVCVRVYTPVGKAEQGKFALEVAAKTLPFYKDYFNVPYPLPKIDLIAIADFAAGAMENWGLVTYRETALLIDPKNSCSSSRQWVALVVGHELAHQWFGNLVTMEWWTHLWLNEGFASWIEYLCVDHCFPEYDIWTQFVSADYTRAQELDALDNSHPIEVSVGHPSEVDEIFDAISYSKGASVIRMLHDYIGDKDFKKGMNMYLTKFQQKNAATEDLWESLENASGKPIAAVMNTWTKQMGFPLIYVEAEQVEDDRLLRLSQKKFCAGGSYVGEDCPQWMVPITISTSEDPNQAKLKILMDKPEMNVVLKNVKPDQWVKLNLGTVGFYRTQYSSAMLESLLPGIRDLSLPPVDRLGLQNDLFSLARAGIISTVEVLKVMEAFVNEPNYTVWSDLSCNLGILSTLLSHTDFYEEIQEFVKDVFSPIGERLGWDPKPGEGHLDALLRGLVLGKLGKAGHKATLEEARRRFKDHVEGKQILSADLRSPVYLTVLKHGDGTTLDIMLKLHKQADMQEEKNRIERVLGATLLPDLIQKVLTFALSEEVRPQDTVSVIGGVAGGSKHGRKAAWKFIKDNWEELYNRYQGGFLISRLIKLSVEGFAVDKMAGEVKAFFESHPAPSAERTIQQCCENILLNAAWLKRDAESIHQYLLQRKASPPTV
UniProt Q99547: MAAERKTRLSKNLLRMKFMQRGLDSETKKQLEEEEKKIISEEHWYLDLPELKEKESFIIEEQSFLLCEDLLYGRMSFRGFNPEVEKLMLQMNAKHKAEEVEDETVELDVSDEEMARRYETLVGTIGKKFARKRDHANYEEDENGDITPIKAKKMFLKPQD
UniProt Q7L4P6: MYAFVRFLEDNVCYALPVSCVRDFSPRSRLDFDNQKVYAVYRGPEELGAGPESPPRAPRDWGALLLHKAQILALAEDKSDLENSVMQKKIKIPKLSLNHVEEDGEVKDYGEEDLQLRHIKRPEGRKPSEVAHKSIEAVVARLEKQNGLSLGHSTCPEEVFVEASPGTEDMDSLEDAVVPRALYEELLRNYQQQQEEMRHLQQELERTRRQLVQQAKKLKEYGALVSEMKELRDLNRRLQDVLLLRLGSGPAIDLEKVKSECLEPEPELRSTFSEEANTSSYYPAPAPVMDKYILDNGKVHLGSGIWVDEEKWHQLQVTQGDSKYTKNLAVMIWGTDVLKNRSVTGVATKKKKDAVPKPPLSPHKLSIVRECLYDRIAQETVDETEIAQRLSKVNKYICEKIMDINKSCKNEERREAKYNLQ
UniProt P28070, whole entry: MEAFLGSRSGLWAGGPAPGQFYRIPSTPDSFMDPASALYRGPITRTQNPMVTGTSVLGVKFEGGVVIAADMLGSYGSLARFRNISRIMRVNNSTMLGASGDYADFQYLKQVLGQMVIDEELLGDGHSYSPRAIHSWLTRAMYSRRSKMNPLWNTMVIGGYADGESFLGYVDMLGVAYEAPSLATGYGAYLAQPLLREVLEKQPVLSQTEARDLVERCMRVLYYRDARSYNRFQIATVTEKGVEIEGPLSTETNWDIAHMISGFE
UniProt P61923: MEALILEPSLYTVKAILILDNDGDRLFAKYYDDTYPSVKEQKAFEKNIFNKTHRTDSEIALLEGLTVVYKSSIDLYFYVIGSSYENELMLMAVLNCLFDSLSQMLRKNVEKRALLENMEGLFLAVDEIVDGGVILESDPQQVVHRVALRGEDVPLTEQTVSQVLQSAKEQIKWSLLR
UniProt Q7L8S5: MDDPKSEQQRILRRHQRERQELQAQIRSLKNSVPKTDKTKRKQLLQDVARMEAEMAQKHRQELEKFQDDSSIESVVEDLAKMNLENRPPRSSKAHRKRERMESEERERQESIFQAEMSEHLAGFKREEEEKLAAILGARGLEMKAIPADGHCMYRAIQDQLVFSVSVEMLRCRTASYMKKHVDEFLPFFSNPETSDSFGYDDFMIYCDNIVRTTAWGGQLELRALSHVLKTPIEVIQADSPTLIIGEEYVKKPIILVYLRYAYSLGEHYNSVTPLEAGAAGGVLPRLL
UniProt Q9Y3Q3: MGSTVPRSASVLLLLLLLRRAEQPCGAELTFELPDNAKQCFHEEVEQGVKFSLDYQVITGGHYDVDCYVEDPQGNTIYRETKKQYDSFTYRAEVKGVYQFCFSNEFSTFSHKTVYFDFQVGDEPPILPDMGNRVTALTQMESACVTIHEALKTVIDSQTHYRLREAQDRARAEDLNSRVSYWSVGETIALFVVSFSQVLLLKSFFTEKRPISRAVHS
UniProt Q8WUQ7: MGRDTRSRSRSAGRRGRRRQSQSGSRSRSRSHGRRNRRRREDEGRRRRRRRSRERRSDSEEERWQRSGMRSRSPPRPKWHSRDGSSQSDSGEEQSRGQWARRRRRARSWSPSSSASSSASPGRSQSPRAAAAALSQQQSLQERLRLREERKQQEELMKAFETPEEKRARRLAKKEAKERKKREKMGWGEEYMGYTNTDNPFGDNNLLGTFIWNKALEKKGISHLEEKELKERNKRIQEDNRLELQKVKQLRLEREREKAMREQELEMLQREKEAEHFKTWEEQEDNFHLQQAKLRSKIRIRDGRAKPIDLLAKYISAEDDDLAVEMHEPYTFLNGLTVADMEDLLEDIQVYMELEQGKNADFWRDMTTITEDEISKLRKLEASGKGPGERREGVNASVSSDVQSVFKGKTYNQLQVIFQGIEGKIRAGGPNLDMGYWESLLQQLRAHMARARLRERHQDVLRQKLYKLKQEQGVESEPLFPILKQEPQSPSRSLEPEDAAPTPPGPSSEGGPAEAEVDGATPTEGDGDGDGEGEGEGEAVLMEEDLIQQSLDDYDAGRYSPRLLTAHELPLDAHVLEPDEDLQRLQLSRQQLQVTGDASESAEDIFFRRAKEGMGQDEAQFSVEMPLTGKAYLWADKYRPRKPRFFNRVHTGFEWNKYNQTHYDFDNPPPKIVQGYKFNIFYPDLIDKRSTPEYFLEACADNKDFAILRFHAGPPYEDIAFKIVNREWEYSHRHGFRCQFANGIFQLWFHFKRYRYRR
UniProt Q96NC0: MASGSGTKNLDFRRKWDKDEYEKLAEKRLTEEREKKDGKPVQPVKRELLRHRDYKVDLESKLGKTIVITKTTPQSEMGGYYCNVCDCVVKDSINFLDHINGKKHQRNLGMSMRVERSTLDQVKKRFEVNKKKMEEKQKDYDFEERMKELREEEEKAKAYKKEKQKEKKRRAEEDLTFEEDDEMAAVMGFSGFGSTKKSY
UniProt Q9NXW2: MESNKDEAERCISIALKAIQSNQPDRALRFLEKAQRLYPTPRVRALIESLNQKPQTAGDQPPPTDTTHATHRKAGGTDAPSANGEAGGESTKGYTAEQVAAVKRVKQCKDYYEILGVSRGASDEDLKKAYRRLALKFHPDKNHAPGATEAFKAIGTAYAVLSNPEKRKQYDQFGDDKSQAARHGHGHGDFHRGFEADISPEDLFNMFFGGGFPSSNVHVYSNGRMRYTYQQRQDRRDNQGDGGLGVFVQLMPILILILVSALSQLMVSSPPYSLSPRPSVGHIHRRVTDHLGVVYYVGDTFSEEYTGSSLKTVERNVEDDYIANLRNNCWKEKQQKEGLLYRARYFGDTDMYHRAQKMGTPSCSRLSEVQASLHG
UniProt Q9BT73: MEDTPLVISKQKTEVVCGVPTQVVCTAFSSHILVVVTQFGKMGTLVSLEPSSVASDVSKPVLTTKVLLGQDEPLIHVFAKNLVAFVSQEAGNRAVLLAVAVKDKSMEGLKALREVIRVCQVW
UniProt O95758: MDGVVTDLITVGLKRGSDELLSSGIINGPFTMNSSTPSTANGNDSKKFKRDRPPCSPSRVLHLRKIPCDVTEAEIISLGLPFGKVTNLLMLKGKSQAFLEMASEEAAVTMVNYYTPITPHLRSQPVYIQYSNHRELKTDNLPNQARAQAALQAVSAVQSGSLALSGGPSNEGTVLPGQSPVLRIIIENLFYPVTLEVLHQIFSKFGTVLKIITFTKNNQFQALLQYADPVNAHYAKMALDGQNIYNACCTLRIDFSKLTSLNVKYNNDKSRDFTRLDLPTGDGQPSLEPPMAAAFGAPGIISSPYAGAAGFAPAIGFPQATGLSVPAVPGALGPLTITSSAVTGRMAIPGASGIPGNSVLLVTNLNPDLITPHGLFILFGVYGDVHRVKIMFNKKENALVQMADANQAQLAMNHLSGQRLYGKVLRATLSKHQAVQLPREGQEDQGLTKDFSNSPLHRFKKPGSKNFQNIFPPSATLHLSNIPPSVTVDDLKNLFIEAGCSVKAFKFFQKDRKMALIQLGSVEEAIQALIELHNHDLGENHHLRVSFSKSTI
UniProt Q9NWT1: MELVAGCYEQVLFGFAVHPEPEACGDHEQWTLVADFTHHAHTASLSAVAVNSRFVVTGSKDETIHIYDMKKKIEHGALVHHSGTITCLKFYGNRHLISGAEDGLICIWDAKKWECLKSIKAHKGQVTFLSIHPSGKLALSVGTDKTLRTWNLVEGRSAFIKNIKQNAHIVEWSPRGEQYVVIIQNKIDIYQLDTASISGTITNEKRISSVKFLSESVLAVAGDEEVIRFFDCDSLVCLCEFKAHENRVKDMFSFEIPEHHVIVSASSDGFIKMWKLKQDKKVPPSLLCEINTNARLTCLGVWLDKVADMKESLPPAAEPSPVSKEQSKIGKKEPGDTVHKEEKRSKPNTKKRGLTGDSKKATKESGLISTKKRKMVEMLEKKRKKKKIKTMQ
UniProt Q6UWE0: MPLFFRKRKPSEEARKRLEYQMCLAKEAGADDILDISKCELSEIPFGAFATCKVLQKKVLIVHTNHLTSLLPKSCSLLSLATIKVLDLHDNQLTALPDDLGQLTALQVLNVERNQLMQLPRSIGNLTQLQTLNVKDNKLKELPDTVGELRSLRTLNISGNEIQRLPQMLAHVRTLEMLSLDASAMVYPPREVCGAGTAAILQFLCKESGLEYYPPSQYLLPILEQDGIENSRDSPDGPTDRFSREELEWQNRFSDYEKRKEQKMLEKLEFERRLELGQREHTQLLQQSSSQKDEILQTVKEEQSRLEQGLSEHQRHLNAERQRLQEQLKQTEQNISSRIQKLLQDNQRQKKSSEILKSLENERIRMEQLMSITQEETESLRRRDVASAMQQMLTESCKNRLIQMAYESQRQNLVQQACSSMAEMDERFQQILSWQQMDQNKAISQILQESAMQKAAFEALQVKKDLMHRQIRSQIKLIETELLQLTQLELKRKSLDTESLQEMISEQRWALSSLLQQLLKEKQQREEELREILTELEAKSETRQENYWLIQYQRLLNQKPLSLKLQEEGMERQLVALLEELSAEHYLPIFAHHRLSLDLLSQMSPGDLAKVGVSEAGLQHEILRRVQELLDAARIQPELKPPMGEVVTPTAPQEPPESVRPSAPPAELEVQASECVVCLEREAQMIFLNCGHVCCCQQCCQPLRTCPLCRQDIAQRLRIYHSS
UniProt Q02297: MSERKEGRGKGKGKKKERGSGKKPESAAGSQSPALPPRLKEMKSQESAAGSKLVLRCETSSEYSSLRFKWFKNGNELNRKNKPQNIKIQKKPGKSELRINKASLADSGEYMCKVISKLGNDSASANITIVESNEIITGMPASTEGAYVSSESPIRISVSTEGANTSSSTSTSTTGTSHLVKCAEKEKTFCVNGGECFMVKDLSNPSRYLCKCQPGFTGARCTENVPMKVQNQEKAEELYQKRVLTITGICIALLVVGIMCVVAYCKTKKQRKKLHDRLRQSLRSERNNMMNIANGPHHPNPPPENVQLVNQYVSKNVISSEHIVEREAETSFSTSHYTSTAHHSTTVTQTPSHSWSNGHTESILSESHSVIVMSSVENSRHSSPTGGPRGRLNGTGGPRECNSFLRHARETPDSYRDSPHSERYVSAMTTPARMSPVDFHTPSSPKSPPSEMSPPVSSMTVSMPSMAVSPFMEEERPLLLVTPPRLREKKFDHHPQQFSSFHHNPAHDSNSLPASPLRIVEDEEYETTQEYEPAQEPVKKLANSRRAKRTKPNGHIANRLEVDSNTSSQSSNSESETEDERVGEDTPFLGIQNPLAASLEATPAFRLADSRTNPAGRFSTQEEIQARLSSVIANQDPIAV
UniProt O75818: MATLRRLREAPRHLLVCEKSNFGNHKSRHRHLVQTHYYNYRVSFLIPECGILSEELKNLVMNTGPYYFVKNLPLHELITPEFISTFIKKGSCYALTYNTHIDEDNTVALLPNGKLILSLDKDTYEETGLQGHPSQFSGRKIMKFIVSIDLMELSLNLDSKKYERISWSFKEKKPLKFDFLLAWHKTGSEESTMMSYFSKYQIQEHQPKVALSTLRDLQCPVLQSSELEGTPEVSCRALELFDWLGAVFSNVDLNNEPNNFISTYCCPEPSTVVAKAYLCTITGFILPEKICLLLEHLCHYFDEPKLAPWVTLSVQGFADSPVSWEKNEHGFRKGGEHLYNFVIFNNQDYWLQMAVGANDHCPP

Compound: [O-][N+](C(C1=C(C(O)=C2)NC(C(C=C3)=CC=C3Cl)C4C1C=CC4)=C2Cl)=O
Assay: melting temperature shift (compound 7 minus DMSO); higher = compound stabilises the protein
Settings: 10 µM
Experimental: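 Thermal proteome profiling (TMT mass spectrometry) in intact DAOY medulloblastoma cells or DAOY lysates treated with 10 µM compound 7 or DMSO, heated at 10 temperatures from 40.5 to 73.8 °C for 3 min. Melting curves were fitted with the Bioconductor TPP package, and the melting point difference between compound and vehicle is reported per protein (single curve per condition).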

[1] = system: DAOY cell lysate, treatment time: 20 min, 4 °C
[2] = system: intact DAOY cells, treatment time: 90 min, 37 °C

| Target | melting temperature shift [1] [°C] | melting temperature shift [2] [°C] |
| --- | --- | --- |
| UniProt Q6A555 | -0.492 | – |
| HTT (UniProt P42858) | -0.108 | 0.235 |
| UBLCP1 (UniProt Q8WVY7) | -0.517 | 0.0796 |
| UniProt E9PAV3 | -1.24 | – |
| NPEPPS (UniProt P55786) | -0.508 | -0.0331 |
| TOE1 (UniProt Q96GM8) | 0.157 | 0.427 |
| RAVER1 (UniProt Q8IY67) | -0.494 | -0.0753 |
| UniProt Q9BXU8 | 2.11 | – |
| NCDN (UniProt Q9UBB6) | -1.27 | -0.436 |
| NEDD4 (UniProt P46934) | 0.065 | -1.3 |
| UniProt Q9Y5N5 | -1.24 | 1.21 |
| UniProt P0C2W7 | – | -0.424 |
| TOMM70 (UniProt O94826) | 0.761 | -0.331 |
| UniProt P22492 | – | -0.154 |
| MTMR12 (UniProt Q9C0I1) | -1.95 | -0.577 |
| MPHOSPH6 (UniProt Q99547) | -0.156 | -0.875 |
| DYNC1I2 (UniProt Q13409) | -0.472 | 0.107 |
| RPS19 (UniProt P39019) | 0.895 | -0.328 |
| DCTD (UniProt P32321) | -0.253 | -5.35 |
| PRRC2A (UniProt P48634) | 0.411 | – |
| SNF8 (UniProt Q96H20) | -1.92 | 0.0188 |
| PIN4 (UniProt Q9Y237) | 0.282 | -0.701 |
| UniProt Q8N239 | – | 0.0487 |

| Target | melting temperature shift [1] [°C] | melting temperature shift [2] [°C] |
| --- | --- | --- |
| EIF2B1 (UniProt Q14232) | -1.2 | 0.476 |
| USP14 (UniProt P54578) | -0.347 | 0.186 |
| RSL1D1 (UniProt O76021) | 0.807 | -0.33 |
| UniProt Q7L4P6 | – | 0.413 |
| GDI1 (UniProt P31150) | -0.188 | 0.219 |
| PANK2 (UniProt Q9BZ23) | -4.26 | – |
| AAGAB (UniProt Q6PD74) | -0.239 | -0.677 |
| RAB35 (UniProt Q15286) | 0.274 | -0.92 |
| PLS1 (UniProt Q14651) | -0.577 | -0.393 |
| UniProt Q9BV19 | 1.55 | 1.28 |
| DYNLRB1 (UniProt Q9NP97) | 0.544 | -0.628 |
| UniProt O00507 | – | -0.747 |
| RALGPS2 (UniProt Q86X27) | 0.0418 | – |
| RTFDC1 (UniProt Q9BY42) | -0.408 | -0.257 |
| CTBP1 (UniProt Q13363) | -0.843 | 0.4 |
| UniProt P08235 | – | 1.62 |
| KYAT3 (UniProt Q6YP21) | -0.562 | 0.23 |
| SPATS2L (UniProt Q9NUQ6) | 0.216 | 1.71 |
| NUDT19 (UniProt A8MXV4) | 0.422 | 1.69 |
| PSMB4 (UniProt P28070) | -0.836 | -0.279 |
| COPZ1 (UniProt P61923) | -0.909 | 0.602 |
| SMC3 (UniProt Q9UQE7) | 0.119 | -0.791 |
| UniProt Q7L8S5 | -0.361 | -1 |

Reformatted with tabs: part of the list above
Target	melting temperature shift [1] [°C]	melting temperature shift [2] [°C]
NUDT19 (UniProt A8MXV4)	0.422	1.69
PSMB4 (UniProt P28070)	-0.836	-0.279
COPZ1 (UniProt P61923)	-0.909	0.602
SMC3 (UniProt Q9UQE7)	0.119	-0.791

Next part.

| Target | melting temperature shift [1] [°C] | melting temperature shift [2] [°C] |
| --- | --- | --- |
| TAF6 (UniProt P49848) | -0.401 | 0.0566 |
| SMARCD1 (UniProt Q96GM5) | -0.87 | -1.28 |
| COG1 (UniProt Q8WTW3) | -1.2 | -0.585 |
| TMED3 (UniProt Q9Y3Q3) | – | -0.124 |
| MRPL17 (UniProt Q9NRX2) | 1.91 | -1.68 |
| ATP1A1 (UniProt P05023) | 1.78 | -0.286 |
| PAAF1 (UniProt Q9BRP4) | -1.28 | 0.747 |
| UniProt Q69YL0 | 1.14 | – |
| VPS35 (UniProt Q96QK1) | -0.404 | -0.497 |
| MAT2B (UniProt Q9NZL9) | -0.495 | -1.12 |
| CACTIN (UniProt Q8WUQ7) | 1.49 | -0.583 |
| ZMAT2 (UniProt Q96NC0) | -2.36 | – |
| UniProt Q9H4L4 | 0.586 | – |
| EHBP1L1 (UniProt Q8N3D4) | 1.02 | 2.33 |
| RELB (UniProt Q01201) | – | 1.28 |
| XRCC1 (UniProt P18887) | 1.18 | -1.34 |
| UniProt Q9Y2W6 | – | -0.943 |
| UniProt Q9UJV3 | – | 0.0732 |
| USP25 (UniProt Q9UHP3) | – | -1.18 |
| EXOC2 (UniProt Q96KP1) | -0.0735 | 1.11 |
| UniProt P17535 | 4.63 | – |
| NAV1 (UniProt Q8NEY1) | -0.528 | -0.615 |
| UFL1 (UniProt O94874) | 0.585 | -0.515 |

| Target | melting temperature shift [1] [°C] | melting temperature shift [2] [°C] |
| --- | --- | --- |
| EML3 (UniProt Q32P44) | -3.1 | 1.22 |
| UniProt Q96LI5 | -2.02 | – |
| POU2F1 (UniProt P14859) | -0.0648 | -1.12 |
| UniProt A6NFN3 | – | -0.63 |
| DNAJB12 (UniProt Q9NXW2) | 1.99 | -1.11 |
| PSMG3 (UniProt Q9BT73) | 5 | 1.39 |
| PTBP3 (UniProt O95758) | -1.12 | -0.117 |
| IQGAP3 (UniProt Q86VI3) | -0.777 | -0.0404 |
| RCOR1 (UniProt Q9UKL0) | -0.424 | -0.196 |
| PAK1IP1 (UniProt Q9NWT1) | -0.397 | 0.465 |
| AKAP13 (UniProt Q12802) | -0.912 | -0.701 |
| RAN (UniProt P62826) | -0.428 | -0.476 |
| DOCK7 (UniProt Q96N67) | -0.763 | -0.464 |
| UniProt Q13325 | -0.277 | -0.708 |
| EIF6 (UniProt P56537) | -0.375 | 0.815 |
| AGTRAP (UniProt Q6RW13) | 5.44 | – |
| RPS4X (UniProt P62701) | 0.371 | -0.758 |
| UniProt Q7Z6K5 | -1.11 | 0.563 |
| RMND5A (UniProt Q9H871) | -0.105 | -0.288 |
| GEMIN2 (UniProt O14893) | -1.1 | 1.14 |
| UniProt Q9UNW9 | – | -0.343 |
| SP3 (UniProt Q02447) | – | 2.21 |
| CCDC117 (UniProt Q8IWD4) | -4.64 | – |

| Target | melting temperature shift [1] [°C] | melting temperature shift [2] [°C] |
| --- | --- | --- |
| UniProt P36507 | -0.464 | -1.32 |
| UniProt Q99877 | – | -0.465 |
| CKB (UniProt P12277) | -0.646 | -1.17 |
| RNASEL (UniProt Q05823) | – | -1.35 |
| BCL9L (UniProt Q86UU0) | -1.53 | – |
| LRSAM1 (UniProt Q6UWE0) | -0.623 | 0.563 |
| LEMD3 (UniProt Q9Y2U8) | -4.7 | -0.127 |
| MYO1C (UniProt O00159) | 0.126 | -1.09 |
| RFC2 (UniProt P35250) | -0.17 | -1.7 |
| DIS3L2 (UniProt Q8IYB7) | -2.33 | 1.45 |
| UniProt Q9P2X0 | 3.62 | 1.94 |
| ATF7IP (UniProt Q6VMQ6) | -0.965 | -2.53 |
| ELMO2 (UniProt Q96JJ3) | -0.0123 | -0.689 |
| UniProt Q02297 | -3.27 | 2.32 |
| GNAQ (UniProt P50148) | 1.5 | -1.42 |
| RPP40 (UniProt O75818) | -1.12 | -1.88 |
| HNRNPL (UniProt P14866) | 0.379 | -0.627 |
| UniProt Q69YH5 | 0.178 | – |
| UniProt Q00872 | – | -0.667 |
| ITPRIP (UniProt Q8IWB1) | 1.87 | – |
| UNC45A (UniProt Q9H3U1) | -0.219 | -0.632 |
